Laboratory results taken from article PMC6052026.
No constants are given. Whether binding was seen depends on the method and setting. Binding calls can cover weak binding; strength is not graded here.

Protein sequences, listed by entry. Tags and fused reporters are not part of them. Lines headed by an entry give the natural chain unless they say otherwise; changes in a name come on top.
UniProt Q96LT7: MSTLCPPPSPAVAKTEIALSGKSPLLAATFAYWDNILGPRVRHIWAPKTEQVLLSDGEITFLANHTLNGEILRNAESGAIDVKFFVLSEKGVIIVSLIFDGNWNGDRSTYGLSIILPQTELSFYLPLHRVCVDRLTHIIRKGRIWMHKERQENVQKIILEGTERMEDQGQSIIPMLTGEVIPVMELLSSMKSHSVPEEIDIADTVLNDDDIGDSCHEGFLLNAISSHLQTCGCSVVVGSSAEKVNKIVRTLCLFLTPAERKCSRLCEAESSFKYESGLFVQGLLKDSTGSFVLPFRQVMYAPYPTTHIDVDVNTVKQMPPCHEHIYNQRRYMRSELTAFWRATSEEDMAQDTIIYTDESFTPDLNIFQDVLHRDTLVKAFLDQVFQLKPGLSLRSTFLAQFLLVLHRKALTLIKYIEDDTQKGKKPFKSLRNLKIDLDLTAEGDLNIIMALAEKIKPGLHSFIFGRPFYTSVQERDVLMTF

Molecular target: GST-C9ORF72 (UniProt Q96LT7)
Assay: pull-down; recombinant p62 pre-cleared with GST and glutathione-agarose, then incubated with glutathione-agarose beads and 0.25 ug GST or GST-C9ORF72, 1 h, 4 C, buffer A (20 mM HEPES pH 7.9, 150 mM NaCl, 0.5 mM EDTA, 1 mM DTT, 10% glycerol, 0.1% triton-X-100); both purified

binding: binds
Substance: recombinant p62 (from UniProt Q13501 1-440)
